Measurements: patent US20250011876A1, “EXTRACELLULAR RNA SIGNATURES OF MUTANT KRAS(G12C) CANCERS” (The Regents of the University of California, priority 2021, published 2025)
For at least one compound, name, drawing or mass did not settle the structure.

Tested on: H358 3D spheroids
Test: H358 spheroid size/area
Assay type: cell-based
Conditions: 10 μM AMG 510, compared with lower concentration

Structure (SMILES): C=CC(=O)N1CCN(c2nc(=O)n(-c3c(C)ccnc3C(C)C)c3nc(-c4c(O)cccc4F)c(F)cc23)[C@@H](C)C1 [AMG 510, Sotorasib]
- effect on spheroid sizes: less effect
